Out of some 330,000 compounds screened, about 1,000 (0.3%) were called active. This list was built around the results that the source calls inconclusive (neither active nor inactive); the mix of calls is not that of the screen. Calls follow the shape of the dose curve; as a rule, active = well fitted inhibition curve with a large enough effect; inconclusive = small, poorly fitted or top-dose-only effect; inactive = no such curve, though single readings can be large or run the other way; tested in mouse RAW 264.7 cells. Potencies beside an inconclusive call are fits to weak or partial responses and may not hold up.
assay: qHTS for Inhibitors of Cell Surface uPA Generation; conditions: cell surface uPA generation assay; series mostly up to 38.3 µM; activity change, negative = inhibition: at the top concentration; also: nearly all actives have a fitted effect of over 55% in size
Outline: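 RAW 264.7, 4000 cells/well, o/n 37 C; cpd 1:5 dilution, up to 38.3 uM final; 24 h 37 C/5% CO2 with reagent; ATP-Lite lum. High ATP = LF entry blocked.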
% is scaled to controls: 0 for no effect and ±100 for the full control effect; potency is read from the fitted curve at half-maximal effect.

Row | Structure (SMILES) | Potency | activity change, negative = inhibition
1 | Cc1ccccc1/C=C/C1=NCCN1 | active: 3.98 µM | –
2 | CCS(=O)(=O)N1Cc2ccccc2CC1C(=O)NCCc1c[nH]c2ccccc12 (configuration not stated) | – | inactive: -0.0617%
3 | Cc1ccc2[nH]c(=O)c3cc(C(=O)N(CCCOC(C)C)Cc4ccco4)sc3c2c1 | inconclusive: 10 µM [inhibitor, partial curve, poor fit] | –
4 | CCN(CC)CCCn1c2c(c(SCC(=O)N3CCc4ccccc43)nc1=O)CCC2 | inconclusive: 12.6 µM [inhibitor, single point] | –
5 | CCOC(=O)C(=CNc1cccc(C)c1C)C(=O)OCC | – | inactive: 10.7%
6 | CCOc1ccc(CCNC(=O)C2CCCN(C(=O)N(C)C)C2)cc1OCC (configuration not stated) | – | inactive: 4.45%
7 | CCCc1nc2ccccc2c2nc(N)nn12 | inconclusive: 2.51 µM [inhibitor, partial curve, poor fit] | –
8 | CCCNC(=O)CCc1cc(C(C)(C)C)c(O)c(C(C)(C)C)c1 | active: 11.2 µM | –
9 | O=C(Nc1ccccc1)Nc1cccn(Cc2c(F)cccc2Cl)c1=O | inconclusive: 10 µM [inhibitor, partial curve, poor fit] | –
10 | CCOc1ccc(S(=O)(=O)Nc2cccc(Cl)c2)cc1 | inconclusive: 5.62 µM [inhibitor, partial curve, poor fit] | –
11 | COc1cc([N+](=O)[O-])ccc1NC(=O)COC(=O)CCOc1ccc(C)cc1 | inconclusive: 14.1 µM [inhibitor, single point] | –
12 | O=C(Nc1cccc([N+](=O)[O-])c1)c1ccncc1 | – | inactive: 8.05%
13 | COc1cc(/C=N/Nc2ccc(Cl)nn2)cc(OC)c1O | inconclusive: 5.62 µM [inhibitor, partial curve, poor fit] | –
14 | CCOC(=O)N1CCC(Nc2cc(C)nc3c(-c4ccccc4OC)c(C)nn23)CC1 | inconclusive: 28.2 µM [inhibitor, single point] | –
15 | CCOC(=O)C1=C(CSc2nc(C)cc(C)c2C#N)OC(N)=C(C#N)C1c1cccs1 (configuration not stated) | – | inactive: -2.81%
16 | Cc1ccc(C(=O)O/N=C(\N)Cc2ccc([N+](=O)[O-])cc2)c(Cl)c1 | inconclusive: 6.31 µM [inhibitor, partial curve, poor fit] | –
17 | CCN(CC)C(=O)CSc1nc(Cc2ccccc2)nc2ccccc12 | inconclusive: 10 µM [inhibitor, partial curve, poor fit] | –
18 | CN(C)CCCNC(=O)c1ccc(-c2cc(O)c3ncccc3c2)cc1 | inconclusive: 10 µM [inhibitor, single point] | –
19 | CCOC(=O)C1CCN(c2c(NC3CCCc4ccccc43)c(=O)c2=O)CC1 (configuration not stated) | inconclusive: 8.91 µM [inhibitor, partial curve, poor fit] | –
20 | Cc1cccc(NC(=O)/C(C#N)=C/c2ccc[nH]2)c1C | inconclusive: 11.2 µM [inhibitor, single point] | –
21 | O=S(=O)(c1cccc2nonc12)N1CCCCCC1 | inconclusive: 11.2 µM [inhibitor, single point] | –
22 | Cc1ccc(N(C)S(=O)(=O)c2cccc(C(=O)Nc3ccc(N4CCOCC4)cc3)c2)cc1 | inconclusive: 14.1 µM [inhibitor, partial curve, poor fit] | –
23 | COC(=O)c1sccc1NC(=O)c1ccc(C(C)C)cc1 | – | inactive: 6.81%
24 | CCS(=O)(=O)c1c([N+](=O)[O-])ncn1C | inconclusive: 8.91 µM [inhibitor, partial curve, poor fit] | –

Record cards, as listed above.
`Cc1ccccc1/C=C/C1=NCCN1` is listed as Potency: active: 3.98 µM
`Cc1ccc(C(=O)O/N=C(\N)Cc2ccc([N+](=O)[O-])cc2)c(Cl)c1` is listed as Potency: inconclusive: 6.31 µM [inhibitor, partial curve, poor fit]

(further entries)

Row | Structure (SMILES) | Potency | activity change, negative = inhibition
25 | CCn1c(=O)cc(C(=O)OC)sc1=Nc1ccc(F)c(F)c1 | inconclusive: 6.31 µM [inhibitor, partial curve, poor fit] | –
26 | Cc1cc(C)cc(C(=O)NCCCc2ccccc2)c1 | – | inactive: 1.76%
27 | CCCCCc1ccc(-c2cn(Cc3ccc4ccccc4c3)nn2)cc1 | inconclusive: 12.6 µM [inhibitor, single point] | –
28 | CCn1nc(C)c(/C=N/NC(=S)Nc2ccc(Cl)cc2Cl)c1C | – | inactive: -2.38%
29 | Cc1cc(F)ccc1S(=O)(=O)Nc1ncnc2sccc12 | – | inactive: 4.41%
30 | CCOC(=O)C1=C(COC(=O)c2ccc([N+](=O)[O-])s2)NC(=O)NC1C (configuration not stated) | inconclusive: 8.91 µM [inhibitor, single point] | –
31 | CC(C)(C)C(=O)NC(=S)NNC(=O)c1ccc(-c2ccccc2)cc1 | inconclusive: 7.08 µM [inhibitor, partial curve] | –
32 | COc1cc(OC)c(C2C(C(=O)Nc3ccc(C)cc3C)=C(C)Nc3ncnn32)cc1OC (configuration not stated) | – | inactive: -4.02%
33 | CN(Cc1ccccc1)C1=CC(=[N+]2CCCCC2)CC(C)(C)C1 | inconclusive: 11.2 µM [inhibitor, partial curve, poor fit] | –
34 | Cc1cc(C)c2[nH]c(O)c(N=NC3=NC(=O)CS3)c2c1 | – | inactive: 7.32%
35 | Cc1nc(SCc2nc3ccc(Br)cc3[nH]2)c2oc3ccccc3c2n1 | inconclusive: 8.91 µM [inhibitor, single point] | –
36 | Cc1ccc(S(=O)(=O)Nc2ccc3nc(C)sc3c2)c(C)c1 | inconclusive: 5.01 µM [inhibitor, single point] | –
37 | CCOC(=O)c1sc(NC(=O)Nc2ccccc2Cl)cc1C | inconclusive: 11.2 µM [inhibitor, single point] | –
38 | CC1CCN(C(=O)COC(=O)/C=C/c2ccco2)CC1 | inconclusive: 0.355 µM [inhibitor, full curve, poor fit] | –
39 | CN(C)S(=O)(=O)c1cccc(NC(=O)/C=C/c2ccc(S(=O)(=O)N3CCOCC3)cc2)c1 | inconclusive: 10 µM [inhibitor, single point] | –
40 | CCOc1ccc(C(=O)NCCc2ccccc2)cc1 | inconclusive: 10 µM [inhibitor, partial curve] | –
41 | COc1ccc(Cl)cc1NC(=O)CN(C)C(=O)c1cn2ccccc2n1 | active: 11.2 µM | –
42 | C(=N\Nc1nc2ccccc2s1)/c1ccco1 | – | inactive: -28.2%
43 | Cn1ncc(S(=O)(=O)Cc2ccccc2)c(Cl)c1=O | – | inactive: 1.17%
44 | Cn1c(NC(=O)C[n+]2cc(-c3ccc(Cl)c(Cl)c3)n3c2CCC3)cc(=O)n(C)c1=O | – | inactive: 2.83%
45 | O=C(NCC1CCCO1)c1cccc(S(=O)(=O)Nc2ccc(F)cc2)c1 (configuration not stated) | inconclusive: 0.708 µM [inhibitor, full curve, poor fit] | –
46 | COc1ccc(-n2ccnc2CN2CCN(C3CCCC3)C(CCO)C2)cc1 (configuration not stated) | inconclusive: 12.6 µM [inhibitor, single point] | –
47 | CCc1cccc(C)c1NC(=O)CO/N=C(\N)CC(=O)NC1CCCCC1 | inconclusive: 7.94 µM [inhibitor, partial curve, poor fit] | –
48 | CC(=O)c1ccc(NC(=O)Nc2ccccc2)cc1 | inconclusive: 11.2 µM [inhibitor, single point] | –

Row | Structure (SMILES) | Potency | activity change, negative = inhibition
49 | COc1ccc(C(C)(C)C)cc1NC(=O)COC(=O)CN1C(=O)NC2(CCCCC2C)C1=O (configuration not stated) | – | inactive: -2.3%
50 | CCN(CC(=O)NCc1ccc(Cl)cc1)C(=O)c1ccc2cc(OC)ccc2c1 | – | inactive: 2.11%
51 | O=C(NCCOc1ccccc1)C1CCC(=O)N(Cc2ccc(Cl)cc2)C1 (configuration not stated) | – | inactive: 9.33%
52 | O=C(CNc1ccc(F)cc1)N/N=C/c1c(O)ccc2ccccc12 | inconclusive: 10 µM [inhibitor, partial curve, poor fit] | –
53 | CC1(C)Oc2cc3oc(-c4cc(O)cc(O)c4)cc3cc2CC1O (configuration not stated) | active: 8.91 µM | –
54 | C=CCn1c(C)cc(C(=O)Cn2nc(C(=O)O)c3ccccc3c2=O)c1C | inconclusive: 5.01 µM [inhibitor, partial curve, poor fit] | –
55 | O=C1/C(=C\c2ccncc2)CCc2ccccc21 | inconclusive: 12.6 µM [inhibitor, single point] | –
56 | CN(C)CCCN(C(=O)c1ccco1)c1nc2cc3c(cc2s1)OCO3 | inconclusive: 1.12 µM [inhibitor, full curve] | –
57 | CN(Cc1cccc(F)c1)C(=O)CN1CCN(S(=O)(=O)c2ccc3c(c2)OCCCO3)CC1 | – | inactive: 6.3%
58 | O=C(CN1C(=O)S/C(=C\c2ccccc2F)C1=O)NC1C=CS(=O)(=O)C1 (configuration not stated) | inconclusive: 5.01 µM [inhibitor, partial curve, poor fit] | –
59 | COc1ccc(C(=O)Nc2ccc(O)cc2C(=O)O)cc1 | – | inactive: -6.56%
60 | Fc1ccc(-c2ccc(/C=N/n3cnnc3)o2)cc1 | – | inactive: -3.53%
61 | Cc1ccc2c(c1)COc1c3ccc(C(=O)N4CCOCC4)cc3nn1-2 | inconclusive: 7.94 µM [inhibitor, single point] | –
62 | CCOc1ccccc1N1CCN(CC(O)COCc2cccs2)CC1 (configuration not stated) | – | inactive: 2.36%
63 | CC(C)(C)C1c2[nH]c3ccccc3c2CCN1Cc1cccc(OCCO)c1 (configuration not stated) | – | inactive: 5.36%
64 | Cc1cc(N/C=C\c2nnnn2-c2ccc(F)cc2)no1 | – | inactive: -12.4%
65 | CCOC(=O)c1c(C)n(OCc2ccccc2)c2ccc3nonc3c12 | inconclusive: 12.6 µM [inhibitor, single point] | –
66 | CCn1cc([N+](=O)[O-])c(C(=O)Nc2nc(-c3ccc(C)cc3)c(C)s2)n1 | – | inactive: -4.28%
67 | Cc1c(NC(=O)c2cccc(NC(=O)COc3ccccc3C#N)c2)c(=O)n(-c2ccccc2)n1C | inconclusive: 4.47 µM [inhibitor, partial curve, poor fit] | –
68 | COc1ccc(-c2nc3c4ccccc4ccn3c2CN2CCCCC2)cc1 | inconclusive: 3.16 µM [inhibitor, partial curve] | –
69 | N=c1ccn2c(n1)O[C@H]1[C@H](O)[C@@H](CO)O[C@H]12 | inconclusive: 0.398 µM [inhibitor, partial curve, poor fit] | –
70 | COCCn1nnnc1C(c1cc2ccc(C)cc2[nH]c1=O)N(Cc1ccco1)Cc1cccs1 (configuration not stated) | – | inactive: -15.3%
71 | O=c1oc2ccccc2c(Nc2ccc(F)cc2)c1[N+](=O)[O-] | inconclusive: 10 µM [inhibitor, partial curve] | –
72 | O=C(COC(=O)c1oc2ccccc2c1CSc1ccc(Cl)cc1)NC1CCCC1 | inconclusive: 3.55 µM [inhibitor, partial curve, poor fit] | –

In the list so far, nine contain a furan ring, fused or not.
Row | Structure (SMILES) | Potency | activity change, negative = inhibition
3 | Cc1ccc2[nH]c(=O)c3cc(C(=O)N(CCCOC(C)C)Cc4ccco4)sc3c2c1 | inconclusive: 10 µM [inhibitor, partial curve, poor fit] | –
35 | Cc1nc(SCc2nc3ccc(Br)cc3[nH]2)c2oc3ccccc3c2n1 | inconclusive: 8.91 µM [inhibitor, single point] | –
38 | CC1CCN(C(=O)COC(=O)/C=C/c2ccco2)CC1 | inconclusive: 0.355 µM [inhibitor, full curve, poor fit] | –
42 | C(=N\Nc1nc2ccccc2s1)/c1ccco1 | – | inactive: -28.2%
53 | CC1(C)Oc2cc3oc(-c4cc(O)cc(O)c4)cc3cc2CC1O (configuration not stated) | active: 8.91 µM | –
56 | CN(C)CCCN(C(=O)c1ccco1)c1nc2cc3c(cc2s1)OCO3 | inconclusive: 1.12 µM [inhibitor, full curve] | –
60 | Fc1ccc(-c2ccc(/C=N/n3cnnc3)o2)cc1 | – | inactive: -3.53%
70 | COCCn1nnnc1C(c1cc2ccc(C)cc2[nH]c1=O)N(Cc1ccco1)Cc1cccs1 (configuration not stated) | – | inactive: -15.3%
72 | O=C(COC(=O)c1oc2ccccc2c1CSc1ccc(Cl)cc1)NC1CCCC1 | inconclusive: 3.55 µM [inhibitor, partial curve, poor fit] | –
